Laboratory results: PMC12686451
No constants are given. Whether binding was seen depends on the method and setting. In cells and extracts the contact can be indirect. Some binding calls cover weakened binding; strength is not graded here. Where a sequence is shown, tags or fusion partners need not be part of it.

Experiments:
Experiment in all cases: co-IP; GFP-tagged LRR-RP adsorbed on GFP-trap agarose beads, Myc-tagged BAK1 detected by immunoblot; N. benthamiana leaves co-expressing both, treated with water or 1 uM elicitor for 5 min before collecting; membrane proteins extracted in 50 mM Tris-HCl pH 7.4, 150 mM NaCl, 0.25% deoxycholic acid, 1% NP-40, 1 mM EDTA
[1] = target: T1, RLP23, wild type, mEGFP-tagged (Arabidopsis) (UniProt O48849)
T1 sequence: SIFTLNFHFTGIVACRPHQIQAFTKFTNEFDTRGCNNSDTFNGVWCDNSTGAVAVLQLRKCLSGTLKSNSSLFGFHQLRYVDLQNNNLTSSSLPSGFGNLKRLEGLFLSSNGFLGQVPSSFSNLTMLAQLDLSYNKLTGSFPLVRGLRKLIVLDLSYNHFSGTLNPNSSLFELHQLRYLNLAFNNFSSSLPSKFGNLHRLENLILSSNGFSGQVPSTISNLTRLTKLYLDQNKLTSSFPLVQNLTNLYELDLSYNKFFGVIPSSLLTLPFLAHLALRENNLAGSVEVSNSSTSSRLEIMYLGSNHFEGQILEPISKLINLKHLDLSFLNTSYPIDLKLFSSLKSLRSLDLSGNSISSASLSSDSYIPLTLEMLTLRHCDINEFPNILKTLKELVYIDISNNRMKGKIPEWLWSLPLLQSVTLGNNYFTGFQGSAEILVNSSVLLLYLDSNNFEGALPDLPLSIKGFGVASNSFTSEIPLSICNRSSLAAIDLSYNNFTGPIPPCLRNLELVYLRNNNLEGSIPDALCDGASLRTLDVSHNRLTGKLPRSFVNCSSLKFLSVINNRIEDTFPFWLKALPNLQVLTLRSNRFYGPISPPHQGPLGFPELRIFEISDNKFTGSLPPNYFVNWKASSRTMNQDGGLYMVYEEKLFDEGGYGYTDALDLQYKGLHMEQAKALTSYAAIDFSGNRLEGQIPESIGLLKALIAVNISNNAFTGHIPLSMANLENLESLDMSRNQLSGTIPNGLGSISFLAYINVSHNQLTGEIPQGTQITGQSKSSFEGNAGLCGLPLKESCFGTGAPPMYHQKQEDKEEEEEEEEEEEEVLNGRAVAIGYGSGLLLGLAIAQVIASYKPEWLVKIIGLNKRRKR

[2] = target: T2, RLP32, wild type, GFP-tagged (Arabidopsis) (UniProt Q9M9X0)
T2 sequence: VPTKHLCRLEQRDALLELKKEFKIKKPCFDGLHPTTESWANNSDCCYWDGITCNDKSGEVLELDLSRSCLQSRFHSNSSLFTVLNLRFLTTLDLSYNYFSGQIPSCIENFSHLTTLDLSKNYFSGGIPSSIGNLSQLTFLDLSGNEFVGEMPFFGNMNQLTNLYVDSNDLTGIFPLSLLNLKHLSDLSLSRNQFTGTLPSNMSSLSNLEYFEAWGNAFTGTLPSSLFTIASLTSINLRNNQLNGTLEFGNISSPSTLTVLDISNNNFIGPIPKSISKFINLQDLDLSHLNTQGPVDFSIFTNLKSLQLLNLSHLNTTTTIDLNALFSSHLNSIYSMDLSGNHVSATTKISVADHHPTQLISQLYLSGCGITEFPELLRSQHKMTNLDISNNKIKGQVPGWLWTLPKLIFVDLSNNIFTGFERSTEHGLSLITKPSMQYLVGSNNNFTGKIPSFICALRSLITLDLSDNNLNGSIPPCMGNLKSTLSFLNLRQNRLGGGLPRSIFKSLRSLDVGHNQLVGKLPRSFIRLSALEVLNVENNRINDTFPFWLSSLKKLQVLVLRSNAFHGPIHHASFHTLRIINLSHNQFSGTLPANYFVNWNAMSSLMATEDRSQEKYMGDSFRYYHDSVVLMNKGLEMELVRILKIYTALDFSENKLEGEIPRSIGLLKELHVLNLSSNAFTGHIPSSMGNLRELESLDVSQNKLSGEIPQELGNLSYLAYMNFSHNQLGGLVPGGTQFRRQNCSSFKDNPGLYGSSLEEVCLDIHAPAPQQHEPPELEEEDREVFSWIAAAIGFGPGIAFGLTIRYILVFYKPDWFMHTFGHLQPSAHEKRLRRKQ

[3] = target: T3, RLP42, wild type, GFP-tagged (Arabidopsis) (UniProt Q9LJS0)
T3 sequence: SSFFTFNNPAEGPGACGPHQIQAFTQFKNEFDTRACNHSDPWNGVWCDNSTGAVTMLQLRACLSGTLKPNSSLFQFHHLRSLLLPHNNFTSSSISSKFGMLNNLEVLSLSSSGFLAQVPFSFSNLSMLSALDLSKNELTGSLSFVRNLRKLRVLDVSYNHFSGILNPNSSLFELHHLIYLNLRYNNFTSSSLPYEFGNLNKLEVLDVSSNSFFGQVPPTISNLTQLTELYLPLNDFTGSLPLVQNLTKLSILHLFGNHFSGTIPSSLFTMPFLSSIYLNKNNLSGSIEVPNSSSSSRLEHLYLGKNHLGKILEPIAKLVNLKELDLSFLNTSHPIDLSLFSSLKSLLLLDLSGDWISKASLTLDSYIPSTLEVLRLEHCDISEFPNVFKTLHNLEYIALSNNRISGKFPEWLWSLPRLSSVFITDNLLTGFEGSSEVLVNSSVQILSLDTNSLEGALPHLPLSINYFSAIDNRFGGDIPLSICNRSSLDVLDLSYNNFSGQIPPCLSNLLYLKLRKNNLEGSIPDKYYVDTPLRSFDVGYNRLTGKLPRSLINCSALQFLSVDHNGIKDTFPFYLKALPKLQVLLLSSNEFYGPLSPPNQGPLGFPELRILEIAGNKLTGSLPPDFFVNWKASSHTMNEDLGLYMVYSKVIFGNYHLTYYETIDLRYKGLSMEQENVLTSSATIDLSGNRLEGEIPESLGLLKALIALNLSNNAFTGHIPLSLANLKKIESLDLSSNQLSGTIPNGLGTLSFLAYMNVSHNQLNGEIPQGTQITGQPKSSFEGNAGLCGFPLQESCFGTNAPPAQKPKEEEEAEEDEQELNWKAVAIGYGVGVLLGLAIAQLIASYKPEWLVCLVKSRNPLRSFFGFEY

- binding [1]: binds
- binding [2]: binds
- binding [3]: binds
B1: BRASSINOSTEROID … 1-ASSOCIATED KINASE 1/SOMATIC EMBRYOGENESIS RECEPTOR KINASE 3, Myc-tagged (receptor, UniProt Q94F62 26-615)
chain: NAEGDALSALKNSLADPNKVLQSWDATLVTPCTWFHVTCNSDNSVTRVDLGNANLSGQLVMQLGQLPNLQYLELYSNNITGTIPEQLGNLTELVSLDLYLNNLSGPIPSTLGRLKKLRFLRLNNNSLSGEIPRSLTAVLTLQVLDLSNNPLTGDIPVNGSFSLFTPISFANTKLTPLPASPPPPISPTPPSPAGSNRITGAIAGGVAAGAALLFAVPAIALAWWRRKKPQDHFFDVPAEEDPEVHLGQLKRFSLRELQVASDNFSNKNILGRGGFGKVYKGRLADGTLVAVKRLKEERTQGGELQFQTEVEMISMAVHRNLLRLRGFCMTPTERLLVYPYMANGSVASCLRERPESQPPLDWPKRQRIALGSARGLAYLHDHCDPKIIHRDVKAANILLDEEFEAVVGDFGLAKLMDYKDTHVTTAVRGTIGHIAPEYLSTGKSSEKTDVFGYGVMLLELITGQRAFDLARLANDDDVMLLDWVKGLLKEKKLEALVDVDLQGNYKDEEVEQLIQVALLCTQSSPMERPKMSEVVRMLEGDGLAERWEEWQKEEMFRQDFNYPTHHPAVSGWIIGDSTSQIENEYPSGPR
